Reference: PMC9903500
No constants are given. Whether binding was seen depends on the method and setting. In cells and extracts the contact can be indirect. Some results given as binding are weak or reduced against the parent protein; the word gives no strength.

The chains behind the UniProt entries cited, without tags or fusion partners.
UniProt Q16665: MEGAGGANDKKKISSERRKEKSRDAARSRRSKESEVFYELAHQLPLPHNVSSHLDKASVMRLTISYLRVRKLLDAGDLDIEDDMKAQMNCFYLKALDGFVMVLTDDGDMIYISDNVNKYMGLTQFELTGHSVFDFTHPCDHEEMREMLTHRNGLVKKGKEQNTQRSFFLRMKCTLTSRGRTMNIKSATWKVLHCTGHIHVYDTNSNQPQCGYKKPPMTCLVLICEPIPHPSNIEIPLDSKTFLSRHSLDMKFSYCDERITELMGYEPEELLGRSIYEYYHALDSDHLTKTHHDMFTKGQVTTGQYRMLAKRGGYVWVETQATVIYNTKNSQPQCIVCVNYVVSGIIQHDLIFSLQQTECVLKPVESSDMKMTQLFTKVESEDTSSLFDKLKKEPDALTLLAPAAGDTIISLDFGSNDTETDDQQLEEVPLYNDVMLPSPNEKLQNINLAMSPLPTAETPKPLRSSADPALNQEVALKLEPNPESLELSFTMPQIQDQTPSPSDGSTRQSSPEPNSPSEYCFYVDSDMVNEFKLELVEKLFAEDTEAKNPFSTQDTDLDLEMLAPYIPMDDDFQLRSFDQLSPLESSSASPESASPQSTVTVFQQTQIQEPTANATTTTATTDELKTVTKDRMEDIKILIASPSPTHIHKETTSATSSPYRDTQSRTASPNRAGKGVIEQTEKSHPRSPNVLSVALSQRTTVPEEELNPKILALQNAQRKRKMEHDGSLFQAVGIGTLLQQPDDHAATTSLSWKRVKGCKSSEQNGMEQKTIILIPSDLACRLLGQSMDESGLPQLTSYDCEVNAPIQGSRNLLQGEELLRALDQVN
UniProt Q92793: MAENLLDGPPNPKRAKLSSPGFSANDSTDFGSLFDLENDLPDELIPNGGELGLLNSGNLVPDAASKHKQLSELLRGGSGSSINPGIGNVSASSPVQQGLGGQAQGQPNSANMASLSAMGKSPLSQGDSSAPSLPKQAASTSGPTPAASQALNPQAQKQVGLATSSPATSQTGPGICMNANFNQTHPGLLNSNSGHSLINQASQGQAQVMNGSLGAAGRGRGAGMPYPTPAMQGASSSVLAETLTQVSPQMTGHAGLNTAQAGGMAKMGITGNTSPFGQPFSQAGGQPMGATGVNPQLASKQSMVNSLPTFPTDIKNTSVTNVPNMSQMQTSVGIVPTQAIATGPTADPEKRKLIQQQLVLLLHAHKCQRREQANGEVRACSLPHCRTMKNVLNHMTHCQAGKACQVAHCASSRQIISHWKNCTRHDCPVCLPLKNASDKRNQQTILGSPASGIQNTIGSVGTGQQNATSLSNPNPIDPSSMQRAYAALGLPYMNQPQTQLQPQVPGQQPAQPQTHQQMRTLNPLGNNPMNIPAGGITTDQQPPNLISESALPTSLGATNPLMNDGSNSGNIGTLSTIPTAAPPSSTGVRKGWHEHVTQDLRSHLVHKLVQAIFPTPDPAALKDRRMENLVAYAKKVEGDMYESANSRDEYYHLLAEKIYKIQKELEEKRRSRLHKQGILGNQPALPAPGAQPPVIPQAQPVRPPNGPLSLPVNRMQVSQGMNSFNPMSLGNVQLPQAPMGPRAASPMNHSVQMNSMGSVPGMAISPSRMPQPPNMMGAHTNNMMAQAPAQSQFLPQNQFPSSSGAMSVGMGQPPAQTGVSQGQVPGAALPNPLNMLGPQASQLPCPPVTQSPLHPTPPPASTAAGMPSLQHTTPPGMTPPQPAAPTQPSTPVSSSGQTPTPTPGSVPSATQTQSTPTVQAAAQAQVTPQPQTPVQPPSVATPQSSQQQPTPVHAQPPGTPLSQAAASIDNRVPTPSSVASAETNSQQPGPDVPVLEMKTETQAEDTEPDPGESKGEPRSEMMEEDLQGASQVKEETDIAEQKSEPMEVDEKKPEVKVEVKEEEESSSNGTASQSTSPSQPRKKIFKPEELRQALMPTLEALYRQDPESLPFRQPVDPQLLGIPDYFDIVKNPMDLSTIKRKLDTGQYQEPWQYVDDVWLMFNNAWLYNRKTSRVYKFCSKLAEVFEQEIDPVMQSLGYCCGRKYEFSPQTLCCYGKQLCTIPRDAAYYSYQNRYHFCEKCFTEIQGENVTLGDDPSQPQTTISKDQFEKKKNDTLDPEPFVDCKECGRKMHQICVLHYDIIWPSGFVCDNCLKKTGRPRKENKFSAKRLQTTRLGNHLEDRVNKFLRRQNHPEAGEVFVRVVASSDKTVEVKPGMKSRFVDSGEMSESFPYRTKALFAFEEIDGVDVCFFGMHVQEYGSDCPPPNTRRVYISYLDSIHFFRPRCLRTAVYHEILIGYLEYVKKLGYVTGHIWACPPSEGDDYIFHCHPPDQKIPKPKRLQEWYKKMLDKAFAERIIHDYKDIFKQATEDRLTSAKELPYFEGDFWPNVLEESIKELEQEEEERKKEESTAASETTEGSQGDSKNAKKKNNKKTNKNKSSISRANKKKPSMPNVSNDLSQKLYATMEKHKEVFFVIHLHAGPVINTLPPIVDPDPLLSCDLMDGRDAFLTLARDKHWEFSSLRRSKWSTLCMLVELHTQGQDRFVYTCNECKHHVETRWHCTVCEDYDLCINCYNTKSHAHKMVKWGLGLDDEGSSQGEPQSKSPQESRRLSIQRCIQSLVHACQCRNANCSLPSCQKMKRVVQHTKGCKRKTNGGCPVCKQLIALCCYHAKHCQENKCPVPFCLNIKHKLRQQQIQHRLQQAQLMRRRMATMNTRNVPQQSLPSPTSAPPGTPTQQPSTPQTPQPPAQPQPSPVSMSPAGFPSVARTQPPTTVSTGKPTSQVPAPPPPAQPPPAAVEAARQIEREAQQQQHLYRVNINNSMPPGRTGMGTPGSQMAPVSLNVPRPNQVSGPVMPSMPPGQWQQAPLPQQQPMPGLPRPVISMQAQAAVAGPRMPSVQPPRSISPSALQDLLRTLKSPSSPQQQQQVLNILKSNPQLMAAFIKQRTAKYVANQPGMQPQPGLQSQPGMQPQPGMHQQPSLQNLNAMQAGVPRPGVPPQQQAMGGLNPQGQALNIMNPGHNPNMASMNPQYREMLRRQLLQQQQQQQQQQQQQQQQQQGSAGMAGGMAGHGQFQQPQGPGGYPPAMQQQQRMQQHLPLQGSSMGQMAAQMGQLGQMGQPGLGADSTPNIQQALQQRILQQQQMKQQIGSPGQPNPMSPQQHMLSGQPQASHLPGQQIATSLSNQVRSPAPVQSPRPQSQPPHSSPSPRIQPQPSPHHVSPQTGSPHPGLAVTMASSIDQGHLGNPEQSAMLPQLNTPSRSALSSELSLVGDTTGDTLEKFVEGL

Target: HIF-1α (human (endogenous in HCC cells)) (UniProt Q16665)
Test: co-IP; cells dissolved in RIPA; IP with anti-HIF-1α antibody or IgG and beads at 4 °C overnight; western blot for p300 and CBP; circPRDM4-overexpressing or control cells

CBP (from UniProt Q92793 1-2442)
binding: binds
